Data as given in publication PMC8790569.
The exact form of at least one protein or probe is not confirmed. Weaker means in comparison with the reference protein, sequence or condition of that experiment. Protein sequences can lack the tags named with them.

Test system: T1, AzuR (Anabaena sp. strain PCC 7120)
T1 sequence (looked up): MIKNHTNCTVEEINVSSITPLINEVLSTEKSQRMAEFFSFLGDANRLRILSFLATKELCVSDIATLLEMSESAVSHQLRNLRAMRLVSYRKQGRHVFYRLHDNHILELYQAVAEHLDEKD
Test: EMSA
Settings: 20 mM Tris-Cl pH 7.5, 1 mM EDTA, 20 ul, RT 30 min, 10% native PAGE in 0.5x TBE, recombinant protein, residues 1-120, label: DIG-ddUTP end label (unlabeled in Fig 4C), probe letters rebuilt from the primers and the genome

Measured: binding result

AAACGTATTATATAACCTAATTGTTACATTTTATTAAGCAATACTTGAACATCTGTTCAGGTATTGTAGTGTAATCACAAGTGAAAACGGAGGAAATAAT (double strand) [PnmtA (100 bp upstream of nmtA ORF)]
binds more weakly: 100 uM Co2+, no DTT | 100 uM Cu2+, no DTT | 100 uM Mn2+, no DTT | 100 uM Ni2+, no DTT | 100 uM Pb2+, no DTT | increasing Cd2+, 1 mM DTT (more prominent disruption) | increasing Cd2+, no DTT | increasing Zn2+, no DTT
